Test results reported in patent publication US20250011448A1 (STAIDSON BIOPHARMA, published 2025).
Changes are numbered by the printed parent chain. These are yes or no findings as the source states them, for the method shown. Some binding calls cover weakened binding; strength is not graded here.

Sequences of proteins named here, by UniProt entry; tags and fusion partners are left off. A change or cut given only in a name is not applied to a line headed by its entry.
UniProt P20333: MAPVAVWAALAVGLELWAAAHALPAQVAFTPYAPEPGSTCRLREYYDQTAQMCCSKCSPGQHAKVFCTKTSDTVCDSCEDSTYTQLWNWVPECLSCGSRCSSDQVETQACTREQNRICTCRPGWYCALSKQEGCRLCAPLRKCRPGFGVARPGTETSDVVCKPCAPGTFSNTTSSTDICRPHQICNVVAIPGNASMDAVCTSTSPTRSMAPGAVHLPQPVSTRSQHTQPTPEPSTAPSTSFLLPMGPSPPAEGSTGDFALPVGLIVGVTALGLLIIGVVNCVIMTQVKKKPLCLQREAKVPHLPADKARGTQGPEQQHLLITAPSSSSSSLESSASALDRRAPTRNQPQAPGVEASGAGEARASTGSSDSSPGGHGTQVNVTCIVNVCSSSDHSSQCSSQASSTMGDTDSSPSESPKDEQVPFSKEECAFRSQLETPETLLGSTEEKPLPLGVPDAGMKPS

B1: 102E4 chimeric anti-TNFR2 antibody (antibody, V domains shown)
VH: EVLLQQSGAELVRPGASVKLSCTASGFNIKDDFIHWVQQRPEQGLEWIGRINPSNANTEYAPKFQDKATITTDTSSNTAYLQLSSLTSEDTAVYYCTRNDGYYDGLFYWGQGTTLTVSS
VL: DIVMTQSHKFMSSSVGDRVSITCKASQDVGTAVAWYQQKPGQSPKLLIYWASTRHTGVPDRFTGSGSGTDFTLTISNVQSEDLADYFCQQYSSYPFTFGSGTKLEIK
notes: Chimeric: mouse variable domains with human constant regions, made as recombinant IgG1
B2: 29G3 chimeric anti-TNFR2 antibody (antibody, V domains shown)
VH: EVMLVESGGASVKPGGSLKLSCAASGFTFSNFAMSWVRQTPEKRLEWVATIRSGDNYSYYSDNVKGRFTISRDNARNTLYLQMSSLRSKDTSIYYCARNWDKVFDYWGQGTTLTVSS
VL: DIVLTQSPASLAVSLGQRATISCRASESVDSYGYSFMHWYQQKPGQPPKLLIYRASNLKSGIPARFSGSGSRTDFTLTINPVEADDVATYYCQQSNEDHTFGGGTKLEIK
notes: as for B1
B3: 85G8.4 chimeric anti-TNFR2 antibody (antibody, V domains shown)
VH: EVQLQQSGPELVKPGASVKISCKTSGYTFTDFNMDWVKQSHGKSLEWIGYINPNNGDAAYNQKFKSKATLTVDKSSNTAYMELHSLTSDDSAVYYCARWGWAFAYWGQGTLVTVSA
VL: DIVMTQSHKIMSTSVGDRVSITCKASQDVKTAVAWYQQKPGQSPKLLIYATSYRYTGVPDRFTGSGSGTDFTFTISTVQAEDLAVYYCQQHYSIPYTFGGGTKLEIK
notes: as for B1
B4: 15H10 chimeric anti-TNFR2 antibody (antibody, V domains shown)
VH: DVQLQESGPGLVTPSQSLSLTCSVTGYSITSGYYWNWIRQFPGNKLEWMGYITYDGNNNYNPSLKSRFSITRDTSKNQFFLKLNSVTSEDTATYYCARGDYGDSAMDYWGQGTSVTVSS
VL: EIVLTQSPAITAASLGQKVTITCSASSGVNYMHWYQQKSGTSPKPWIYEISKLASGVPARFSGSGSGTSYSLTISSMEAEDAAIYYCQQWNYPLITFGAGTKVELK
notes: as for B1
B5: 11C1 chimeric anti-TNFR2 antibody (antibody, V domains shown)
VH: B4 VH with Q5R, F41I, N61D, S66N, F68I, K82T
VL: B4 VL with G28S, N30S, T73I, V103L
notes: as for B1

The binders below were run against human TNFR2 extracellular domain fused to human IgG1 Fc (human) (UniProt P20333) (assay: blocking ELISA: antibody pre-mixed with TNFR2-huFc, binding to plate-coated human TNFα measured; y axis % inhibition of binding to huTNFa).

Binder	binding
B1	binds
B2	binds
B3	binds
B4	binds
B5	binds

Each binder was assayed against human TNFR2 extracellular domain fused to human IgG1 Fc (human) (UniProt P20333) (assay: blocking ELISA).

Binder	binding
B1	binds
B2	binds
B3	binds
B4	binds
B5	binds
